Reference: PubChem BioAssay (NCATS)
Several values for one entry are separate records, joined by “and”; a condition that tells them apart may be missing. Equal entries are not always repeated. This list was built around the results that the source calls inconclusive (neither active nor inactive); the mix of calls is not that of the screen. For some assays here: Potencies of inconclusive entries are doubtful fits and often do not repeat. For some assays here: A note “side channel” means that the fit belongs to a control or component signal, not to the main read-out. Activity calls are given as the source filed them. Unless noted, the call rests on the fitted dose curve.

Sequences of proteins named here, by UniProt entry; tags and fusion partners are left off. A change or cut given only in a name is not applied to a line headed by its entry.
UniProt Q03181: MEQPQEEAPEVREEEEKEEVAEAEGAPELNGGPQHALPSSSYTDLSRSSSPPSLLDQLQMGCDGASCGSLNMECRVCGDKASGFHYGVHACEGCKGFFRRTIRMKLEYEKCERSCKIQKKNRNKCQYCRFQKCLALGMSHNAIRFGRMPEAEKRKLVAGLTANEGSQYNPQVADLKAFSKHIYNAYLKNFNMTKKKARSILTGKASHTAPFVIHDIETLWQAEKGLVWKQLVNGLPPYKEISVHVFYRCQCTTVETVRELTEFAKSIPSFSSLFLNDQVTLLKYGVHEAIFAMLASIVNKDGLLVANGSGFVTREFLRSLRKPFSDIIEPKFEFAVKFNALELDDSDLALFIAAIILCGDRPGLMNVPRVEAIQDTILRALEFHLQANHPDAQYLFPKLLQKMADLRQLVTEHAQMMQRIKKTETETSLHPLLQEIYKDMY
UniProt P19793: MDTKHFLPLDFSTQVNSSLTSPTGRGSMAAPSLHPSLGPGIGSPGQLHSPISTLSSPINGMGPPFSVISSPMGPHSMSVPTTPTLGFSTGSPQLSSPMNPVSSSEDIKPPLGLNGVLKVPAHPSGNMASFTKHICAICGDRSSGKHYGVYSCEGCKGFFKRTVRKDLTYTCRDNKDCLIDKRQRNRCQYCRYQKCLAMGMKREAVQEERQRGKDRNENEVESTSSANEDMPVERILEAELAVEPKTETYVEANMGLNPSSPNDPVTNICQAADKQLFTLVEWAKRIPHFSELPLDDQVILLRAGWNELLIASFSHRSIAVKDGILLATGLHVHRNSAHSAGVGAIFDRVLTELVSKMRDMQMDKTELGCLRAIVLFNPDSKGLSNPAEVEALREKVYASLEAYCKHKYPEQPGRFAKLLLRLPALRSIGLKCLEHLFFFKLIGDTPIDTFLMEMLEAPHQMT
UniProt P10828: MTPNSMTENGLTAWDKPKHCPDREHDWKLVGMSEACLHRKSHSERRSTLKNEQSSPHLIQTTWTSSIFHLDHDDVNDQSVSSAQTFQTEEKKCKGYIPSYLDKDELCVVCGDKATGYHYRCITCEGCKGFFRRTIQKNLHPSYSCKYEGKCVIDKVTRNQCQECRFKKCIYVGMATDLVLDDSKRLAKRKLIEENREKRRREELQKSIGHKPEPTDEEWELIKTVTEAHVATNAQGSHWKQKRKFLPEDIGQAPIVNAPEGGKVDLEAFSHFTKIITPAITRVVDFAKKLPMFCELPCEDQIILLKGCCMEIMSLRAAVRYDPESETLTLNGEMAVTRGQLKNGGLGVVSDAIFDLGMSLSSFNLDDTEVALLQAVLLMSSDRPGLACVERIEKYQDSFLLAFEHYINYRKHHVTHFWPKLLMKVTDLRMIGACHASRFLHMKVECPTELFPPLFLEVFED
UniProt P01375, whole entry, looked up: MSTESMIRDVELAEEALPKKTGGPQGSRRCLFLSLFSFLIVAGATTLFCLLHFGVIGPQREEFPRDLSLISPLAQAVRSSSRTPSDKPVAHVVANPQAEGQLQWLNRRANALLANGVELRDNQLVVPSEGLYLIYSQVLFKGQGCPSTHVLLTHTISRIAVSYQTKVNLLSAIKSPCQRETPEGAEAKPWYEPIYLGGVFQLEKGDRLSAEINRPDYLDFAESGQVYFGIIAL

Target: Peroxisome proliferator-activated receptor delta (Homo sapiens) (UniProt Q03181)
Experiment: qHTS assay for small molecule antagonists of peroxisome proliferator-activated receptor delta signaling (AID 588535; active means well fitted inhibition curve with a large enough effect in the signal ratio, with a control signal flat, not every such curve was filed as active; inconclusive means small, poorly fitted or top-dose-only effect, or effect the other way, or a change in a side signal; inactive means no such curve, though single readings can be large or run the other way; the % refers to the signal ratio; further: potency means the concentration at half of the fitted maximal effect)
Conditions: HEK293T PPARd-UAS-bla, beta-lactamase FRET ratio, 18 h; activity change, negative = inhibition: at 76.7 µM (top of the series) unless noted
Summary of the method: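 Compounds tested in titration on PPAR-delta-UAS-bla HEK293T cells grown in charcoal/dextran-stripped serum (2%); beta-lactamase activity read via CCF4 emission at 460 and 530 nm.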

| SMILES | Potency | activity change, negative = inhibition |
| --- | --- | --- |
| Cc1ccc2ccccc2c1[N+](=O)[O-] | inconclusive: 0.0631 µM [inhibitor, full curve, poor fit] | – |
| CCCCCCN | – | inconclusive: -13.9% |
| Cc1ccc2ccc3cccc4ccc1c2c34 | inactive | – |
| CC(=O)Nc1ccc(N)cc1 | – | inconclusive: -14.2% |
| CCCCCCCCC1CO1 (configuration not stated) | inactive | – |
| c1ccc(COCc2ccccc2)cc1 | – | inconclusive: -30.6% |
| Cc1c(N)cccc1Cl | inactive | – |
| CC(=O)CC(=O)Nc1ccccc1 | – | inconclusive: 19.9% |

Target: Peroxisome proliferator-activated receptor gamma (Homo sapiens) (UniProt P37231)
Experiment: qHTS assay for small molecule antagonists of peroxisome proliferator-activated receptor gamma signaling (AID 588537; active means well fitted inhibition curve with a large enough effect in the signal ratio, with a control signal flat, not every such curve was filed as active; inconclusive means small, poorly fitted or top-dose-only effect, or effect the other way, or a change in a side signal; the % refers to the signal ratio;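 further: reporter cells co-stimulated with 50 nM rosiglitazone agonist during compound treatment; % of control where 0% means no effect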)
Conditions: HEK293 PPARg-UAS-bla, beta-lactamase ratio, antagonist mode; activity, negative = inhibition: at 76.8 µM (top of the series) unless noted
Summary of the method: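 HEK293 cells, PPAR-gamma-UAS-bla, 3000/well. Pre-incubation 6-6.5 h, 37 C. Compound titration with rosiglitazone 50 nM final, 16 h. CCF4 dye, 2 h RT, dual-emission fluorescence.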

| SMILES | Potency | activity, negative = inhibition |
| --- | --- | --- |
| CCCCOC(=O)COc1ccc(Cl)cc1Cl | inactive | – |
| c1c[nH]cn1 | – | inconclusive: 6.76% |
| Cc1ccc2ccccc2c1[N+](=O)[O-] | inactive | – |
| Cc1ccc(Cl)cc1 | – | inconclusive: 8.89% |
| CCCCOCCO | inactive | – |
| CCCCNCC | – | inconclusive: 5.45% |
| NC(=O)c1ccc([N+](=O)[O-])cc1 | – | inconclusive: 5.69% |
| Cc1c(N)cccc1Cl | – | inconclusive: -1.77% |
| CCCCC(C=O)CC (configuration not stated) | – | inconclusive: 14.4% |
| Cc1ccc(S(N)(=O)=O)cc1 | – | inconclusive: 9.74% |
| O=[N+]([O-])c1cccc(I)c1 | – | inconclusive: 11.7% |

Full records, looked up by structure. Values in the order: Potency	activity, negative = inhibition
CCCCOC(=O)COc1ccc(Cl)cc1Cl is listed with inactive	–
CCCCC(C=O)CC (configuration not stated) is listed with –	inconclusive: 14.4%
CCCCNCC is listed with –	inconclusive: 5.45%
Cc1ccc(Cl)cc1 is listed with –	inconclusive: 8.89%

Single entries from the list:
CCCCOCCO | Potency: inactive
Cc1c(N)cccc1Cl | activity, negative = inhibition: inconclusive: -1.77%

Target: Vitamin D3 receptor (Homo sapiens) (UniProt P11473)
Experiment: qHTS assay for small molecule antagonists of vitamin D receptor signaling (AID 588541);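 further: receptor activated by calcitriol during compound treatment; on the % scale 0 is the no-effect control and ±100 the full control effect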
Conditions: HEK293T VDR-UAS-bla, beta-lactamase ratio, antagonist mode; activity change, negative = inhibition: at 76.7 µM (top of the series)

| SMILES | Potency | activity change, negative = inhibition |
| --- | --- | --- |
| Cc1ccc2ccccc2c1[N+](=O)[O-] | inactive | – |
| Cc1ccc(Cl)cc1 | inactive | – |
| c1ccc(COCc2ccccc2)cc1 | inactive | – |
| CC(=O)CC(=O)Nc1ccccc1 | – | inconclusive: 2.13% |

Target: Retinoic acid receptor RXR-alpha (Homo sapiens) (UniProt P19793)
Experiment: qHTS assay for small molecule agonists of retinoid X receptor alpha signaling (AID 588544);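 further: 0% = DMSO basal wells and 100% = reference agonist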
Conditions: HEK293T RXRa-UAS-bla, beta-lactamase reporter, 18 h; activation: at 76.7 µM (top of the series)

| SMILES | Potency |
| --- | --- |
| CCCCOCCO | inactive |
| CCCCNCC | inactive |
| Cc1ccc2ccc3cccc4ccc1c2c34 | inactive |
| NC(=O)c1ccc([N+](=O)[O-])cc1 | inactive |

Target: Retinoic acid receptor RXR-alpha (Homo sapiens) (UniProt P19793)
Experiment: qHTS assay for small molecule antagonists of retinoid X receptor alpha signaling (AID 588546; active means well fitted inhibition curve with a large enough effect in the signal ratio, with a control signal flat, not every such curve was filed as active; inconclusive means small, poorly fitted or top-dose-only effect, or effect the other way, or a change in a side signal; inactive means no such curve, though single readings can be large or run the other way; the % refers to the signal ratio;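 further: cells stimulated with 9-cis-retinoic acid as agonist; on the % scale 0 is the no-effect control and ±100 the full control effect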)
Conditions: HEK293T RXRa-UAS-bla, beta-lactamase ratio, antagonist mode
Summary of the method: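 Beta-lactamase reporter inhibition, read as CCF4 fluorescence ratio (ex 405, em 460/530 nm) after 2 h at RT. HEK293T UAS-bla cells, 2500/well, were stimulated with 9-cis-RA at 500 or 100 nM final alongside test compound for 18 h at 37 C.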

| SMILES | max response |
| --- | --- |
| c1c[nH]cn1 | inactive: -1.89% |
| c1ccc2c(c1)ccc1cc3c(ccc4ccccc43)cc12 | inconclusive: -0.0406% |
| O=[N+]([O-])c1cccc(I)c1 | inactive: -4.26% |

Target: Thyroid hormone receptor beta (Homo sapiens) (UniProt P10828)
Experiment: qHTS assay for small molecule antagonists of thyroid hormone receptor beta signaling (AID 588547; active means well fitted inhibition curve with a large enough effect in the signal ratio, with a control signal flat, not every such curve was filed as active; inconclusive means small, poorly fitted or top-dose-only effect, or effect the other way, or a change in a side signal; the % refers to the signal ratio; further: potency means the concentration at half of the fitted maximal effect;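 on activity change % (negative = inhibition): cells stimulated with 0.4 nM T3 agonist during compound exposure; on the % scale 0 is the no-effect control and ±100 the full control effect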)
Conditions: TR-UAS-bla HEK293, beta-lactamase ratio, antagonist mode, 18 h
Summary of the method: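 TR-UAS-bla GripTite HEK293 cells in 2% charcoal/dextran FBS medium were preincubated 4 h at 37 C, given compound (0.59 nM to 92 uM) plus 0.4 nM T3 (final) for 18 h, then CCF4 for 2 h at RT; Hill fit gave IC50.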

| SMILES | activity change % (negative = inhibition) | Potency |
| --- | --- | --- |
| CCCCOCCO | inconclusive: 1.96% | – |
| CCCCCCc1ccc(-c2ccc(C#N)cc2)cc1 | inactive: 6.73% | – |
| CC(=O)Nc1ccc(N)cc1 | – | inconclusive: 0.0631 µM [side channel, falling, full curve, poor fit] |
| Cc1ccc(S(N)(=O)=O)cc1 | inactive: 17.3% and inactive: -1.91% | – |
| CC(=O)CC(=O)Nc1ccccc1 | inactive: 8.7% and inactive: 11% | – |

Tested on: not listed separately
Experiment: qHTS assay for small molecule agonists of the antioxidant response element (ARE) signaling pathway (AID 651741; active means well fitted activation curve with a large enough effect in the signal ratio; inconclusive means small, poorly fitted or top-dose-only effect, or effect the other way, or a change in a side signal; the % refers to the signal ratio; further: potency means the concentration at half of the fitted maximal effect; on activation: % of control where 0% means no effect)
Conditions: HepG2 ARE-bla reporter, beta-lactamase FRET ratio, 16 h; activation: at 96 µM (top of the series) unless noted
Summary of the method: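 Beta-lactamase reporter expression driven by the antioxidant response element in HepG2 cells was detected by fluorescence with LiveBLAzer B/G FRET substrate (2 h, room temperature) following 16 h compound treatment at 37 C.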

| SMILES | Potency | activation |
| --- | --- | --- |
| CC(C)S | inconclusive: 33.5 µM [cytotoxic, side channel, single point] | – |
| O=C=Nc1ccc(Cc2ccc(N=C=O)cc2)cc1 | inactive | – |
| c1c[nH]cn1 | inactive | – |
| Cc1ccc2ccccc2c1[N+](=O)[O-] | – | inconclusive: 6.88% |
| CCCCCCN | inconclusive: 33.5 µM [side channel, falling, single point] | – |
| CCCCNCC | inactive | – |
| CCCCCCc1ccc(-c2ccc(C#N)cc2)cc1 | inconclusive: 75 µM [activator, single point] | – |
| Cc1ccc2ccc3cccc4ccc1c2c34 | active: 59.6 µM | – |
| CC(=O)Nc1ccc(N)cc1 | inconclusive: 47.3 µM [activator, partial curve, poor fit] | – |
| CCCCCCCCC1CO1 (configuration not stated) | – | inconclusive: 13.3% |
| NC(=O)c1ccc([N+](=O)[O-])cc1 | inactive | – |
| c1ccc(COCc2ccccc2)cc1 | inactive | – |
| Cc1c(N)cccc1Cl | inactive | – |
| CC(=O)CC(=O)Nc1ccccc1 | inactive | – |

Tested on: not listed separately
Experiment: qHTS assay for small molecule disruptors of the mitochondrial membrane potential - 5 hr assay (AID 651755); further: on the % scale 0 is the no-effect control and ±100 the full control effect; nearly all actives have a fitted effect of over 40% in size
Conditions: JC-1-type ratio dye; ratio change, negative = disruption: at 92.2 µM (top of the series)
Summary of the method: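 Seed HepG2 overnight, add compound, incubate 5 hr at 37C and 5% CO2, stain 30 min with Mito-MPS, then measure monomer (490/535 nm) and aggregate (540/590 nm) fluorescence.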

| SMILES | Potency | ratio change, negative = disruption |
| --- | --- | --- |
| CC(C)S | inactive | – |
| c1ccc2c(c1)ccc1cc3c(ccc4ccccc43)cc12 | – | inconclusive: -25.7% |
| Cc1ccc2ccc3cccc4ccc1c2c34 | – | inconclusive: -21.1% |
| CCCCC(C=O)CC (configuration not stated) | inactive | – |

Target: Tumor necrosis factor (Homo sapiens) (UniProt P01375)
Experiment: qHTS assay to identify small molecules that stimulate Tumor Necrosis Factor-alpha (TNF-alpha) secretion (AID 651757; active means well fitted curve in the direction sought with a large enough effect in the signal ratio; inconclusive means small, poorly fitted or top-dose-only effect, or a change in a side signal; inactive means no such curve, though single readings can be large or run the other way; the % refers to the signal ratio; further: potency means the concentration at half of the fitted maximal effect; on activation (TNF-alpha secretion): 0% is about no effect)
Conditions: Human cells, HTRF 665/615 ratio; activation (TNF-alpha secretion): at 92.2 µM (top of the series)
Summary of the method: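 Using 3000 THP-1 cells per well, compounds and controls were applied for 17 hrs at 37 C. Detection followed with two labeled anti-TNF-alpha antibodies (cryptate donor, XL665 acceptor) for 3 hr at room temperature, measured by TR-FRET.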

| SMILES | Potency | activation (TNF-alpha secretion) |
| --- | --- | --- |
| c1c[nH]cn1 | inactive | – |
| c1ccc2c(c1)ccc1cc3c(ccc4ccccc43)cc12 | – | inconclusive: 3.9% |
| Cc1ccc2ccc3cccc4ccc1c2c34 | inactive | – |
| CCCCC(C=O)CC (configuration not stated) | inactive | – |
| Cc1ccc(S(N)(=O)=O)cc1 | inconclusive: 3.35 µM [activator, single point] | – |

Tested on: not listed separately
Experiment: qHTS assay to identify small molecules that stimulate interleukin-8 (IL-8) secretion (AID 651758; active means well fitted activation curve with a large enough effect in the signal ratio; inconclusive means small, poorly fitted or top-dose-only effect, or effect the other way, or a change in a side signal; the % refers to the signal ratio; further: potency means the concentration at half of the fitted maximal effect; on activation: 0% is about no effect)
Conditions: HTRF ratio (665/615); activation: at 92.2 µM (top of the series)
Summary of the method: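 Quantitative HTS in THP-1 monocytic cells at 2000 cells per well, with 16 hrs compound incubation at 37 C. IL-8 in the medium was then quantified by HTRF immunoassay, read after 1-3 hrs at room temperature.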

| SMILES | Potency | activation |
| --- | --- | --- |
| CC(C)S | inconclusive: 75 µM [falling, single point] | – |
| O=C=Nc1ccc(Cc2ccc(N=C=O)cc2)cc1 | inactive | – |
| c1c[nH]cn1 | inactive | – |
| Cc1ccc2ccccc2c1[N+](=O)[O-] | inactive | – |
| CCCCCCN | inconclusive: 75 µM [inhibitor, partial curve, poor fit] | – |
| Cc1ccc(Cl)cc1 | – | inconclusive: 16.9% |
| CCCCOCCO | – | inconclusive: -14.9% |
| c1ccc2c(c1)ccc1cc3c(ccc4ccccc43)cc12 | – | inconclusive: 8.72% |
| CCCCNCC | inactive | – |
| CCCCCCc1ccc(-c2ccc(C#N)cc2)cc1 | inactive | – |
| Cc1ccc2ccc3cccc4ccc1c2c34 | inconclusive: 75 µM [activator, single point] | – |
| CC(=O)Nc1ccc(N)cc1 | inconclusive: 75 µM [rising, single point] | – |
| CCCCCCCCC1CO1 (configuration not stated) | – | inconclusive: 7.83% |
| NC(=O)c1ccc([N+](=O)[O-])cc1 | – | inconclusive: -6.42% |
| Cc1c(N)cccc1Cl | inactive | – |
| CCCCC(C=O)CC (configuration not stated) | – | inconclusive: -16.3% |
| Cc1ccc(S(N)(=O)=O)cc1 | inactive | – |
| CC(=O)CC(=O)Nc1ccccc1 | inactive | – |
| O=[N+]([O-])c1cccc(I)c1 | – | inconclusive: 9.72% |
